# Data reported in the supplement of paper PMC10689618.
# Counter-ions that a name gives are not always drawn. The list shows a part of the results. Repeats are few or missing, and single values can be far off.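 Primary human fetal astrocytes engulfed labelled rat cortical synaptosomes, measured as a red/green ratio corrected for calcein live-cell signal and scaled to the plate median. Toxicity meant calcein falling over 30%; decreased phagocytosis meant below 70% of median above 5 µM.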
# System: Human fetal astrocytes
# Experiment: loss of total cells relative to no-compound high-control median (toxicity); higher = more toxic (fewer cells)
# Settings: 1.39 µM; 24 h
row,Compound,loss of total cells [%]
1,CCn1nc(C(=O)O)c(=O)c2cc3c(cc21)OCO3 [Cinoxacin],-17.6
2,CC(C)(C)[C@]1(O)CCN2C[C@H]3c4ccccc4CCc4cccc(c43)[C@@H]2C1 [(+)-Butaclamol hydrochloride],-3.8
3,CCCCCC(O)CCCC(=O)O (stereo unspecified) [5-hydroxydecanoic acid sodium],-4.6
4,CC(C)C1C2CCC(C2)C1N (stereo unspecified),-21.7
5,CC1(C)CCC2=C(O1)c1ccccc1C(=O)C2=O [beta-Lapachone],-15.6
6,Brc1c(NC2=NCCN2)ccc2nccnc12,-15.8
7,"O=C1NC(=O)C(c2ccccc2)(c2ccccc2)N1 [5,5-Diphenylhydantoin]",-13.8
8,CN(C)c1ccc(/C=C2/C(=O)Nc3ccccc32)cc1,-3.4
9,CC(=O)NC(C(=O)O)C(C)(C)SN=O (stereo unspecified) [S-Nitroso-N-acetylpenicillamine],-15.6
10,COc1ccccc1N1CCN(CCN2C(=O)CC3(CCCC3)CC2=O)CC1 [BMY 7378 dihydrochloride],-23.9
11,CN1[C@@H]2CC[C@H]1CC(OC(=O)c1c[nH]c3ccccc13)C2 (stereo partly specified) [3-Tropanyl-indole-3-carboxylate hydrochloride],-15.8
12,"N=C(N)SCCc1ccc(CCSC(=N)N)cc1 [1,4-PBIT dihydrobromide]",-24.5
13,CC(CCc1ccc(O)cc1)NCCc1ccc(O)c(O)c1 (stereo unspecified) [Dobutamine hydrochloride],-7.1
14,CC[N+](C)(C)Cc1ccccc1Br [Bretylium tosylate],-4
15,N#C/C(=C\c1ccc(O)c(O)c1)C(=O)Nc1ccccc1 [Tyrphostin AG 494],-23.3
16,Brc1ccc([C@H]2CN3CCSC3=N2)cc1 [S(-)-p-Bromotetramisole oxalate],-17.6
17,"CN1C2CCC1CC(NC(=O)c1nn(C)c3ccccc13)C2 (stereo unspecified) [LY-278,584 maleate]",-3.3
18,C=C[C@H]1CN2CC[C@H]1C[C@H]2[C@H](O)c1ccnc2ccc(OC)cc12 [Quinine sulfate],-12.1
19,"NCCCCCCCCCCN [1,10-Diaminodecane]",-2.1
20,Cl.N[C@@H](CCC(=O)O)C(=O)O [L-Glutamic acid hydrochloride],1.3
21,CCC(=O)c1ccc2c(c1)N(CCCN(C)C)c1ccccc1S2 [Propionylpromazine hydrochloride],-7.1
22,NC(=O)OCC(COC(N)=O)c1ccccc1 [Felbamate],-8.8
23,CNC(=O)c1cc2c(cn1)[nH]c1ccccc12 [N-Methyl-beta-carboline-3-carboxamide],-24.7
24,CCCCCCCCCC(=O)NC(CN1CCOCC1)[C@H](O)c1ccccc1 (mixture of isomers),-2.8
25,COc1cc2c(cc1OC)-c1c/c(=N\c3c(C)cc(C)cc3C)n(C)c(=O)n1CC2 [Trequinsin hydrochloride],-7.8
26,COC1(C2=NCCN2)COc2ccccc2O1 (stereo unspecified),-3.4

# Same assay, conditions: 2.78 µM; 24 h
row,Compound,loss of total cells [%]
1,Cc1cc2c(cc1Cl)N(C(=O)Nc1cccc3ncccc13)CC2,-3.2
2,CNCC[C@@H](Oc1ccccc1C)c1ccccc1 [Tomoxetine],-42.2
3,CCSC(N)=Nc1ccc(C(F)(F)F)cc1 [TFPI hydrochloride],-30.8
4,NCCCCNS(=O)(=O)c1ccc2c(Cl)cccc2c1,-12.6
5,CC1CCN(CC[C@H]2CCCN2S(=O)(=O)c2cccc(O)c2)CC1,-12.9
6,OC[C@H]1O[C@@H](n2cnc3c(Nc4ccccc4)ncnc32)[C@H](O)[C@@H]1O [N6-Phenyladenosine],-1.5
7,CNCC[C@H](Oc1ccc(C(F)(F)F)cc1)c1ccccc1 [S-(+)-Fluoxetine hydrochloride],-22.2
8,Nc1nc(Cl)nc2c1ncn2[C@@H]1O[C@H](CO)[C@@H](O)[C@H]1O [2-Chloroadenosine],-20.2
9,C#C[C@]1(O)CC[C@H]2[C@@H]3CCC4=Cc5oncc5C[C@]4(C)[C@H]3CC[C@@]21C [Danazol],-25.6
10,N#C/C(=C\c1ccc(O)c(O)c1)C(=O)c1ccc(O)c(O)c1 [Tyrphostin AG 538],-8.1
11,NCC(O)c1ccc(O)c(O)c1 (racemic) [(±)-Norepinephrine (+)bitartrate],-12
12,CN1CCN(CCCN2c3ccccc3Sc3ccc(Cl)cc32)CC1 [Prochlorperazine dimaleate],-6.9
13,CCOC(=O)c1cnc2c(cnn2CC)c1NN=C(C)C [Etazolate hydrochloride],-1.7
14,NC/C=C/C(=O)O [(E)-4-amino-2-butenoic acid],-16.5
15,CCn1nc(C(=O)O)c(=O)c2cc3c(cc21)OCO3 [Cinoxacin],-16.2
16,CC(C)(C)[C@]1(O)CCN2C[C@H]3c4ccccc4CCc4cccc(c43)[C@@H]2C1 [(+)-Butaclamol hydrochloride],-0.9
17,CCCCCC(O)CCCC(=O)O (stereo unspecified) [5-hydroxydecanoic acid sodium],-3.4
18,CC(C)C1C2CCC(C2)C1N (stereo unspecified),-15.9
19,CC1(C)CCC2=C(O1)c1ccccc1C(=O)C2=O [beta-Lapachone],4.1
20,Brc1c(NC2=NCCN2)ccc2nccnc12,-6.9

row,Compound,loss of total cells [%]
1,"O=C1NC(=O)C(c2ccccc2)(c2ccccc2)N1 [5,5-Diphenylhydantoin]",-15.4
2,CN(C)c1ccc(/C=C2/C(=O)Nc3ccccc32)cc1,-9.3
3,CC(=O)NC(C(=O)O)C(C)(C)SN=O (stereo unspecified) [S-Nitroso-N-acetylpenicillamine],7.7
4,COc1ccccc1N1CCN(CCN2C(=O)CC3(CCCC3)CC2=O)CC1 [BMY 7378 dihydrochloride],-13.2
5,CN1[C@@H]2CC[C@H]1CC(OC(=O)c1c[nH]c3ccccc13)C2 (stereo partly specified) [3-Tropanyl-indole-3-carboxylate hydrochloride],-15.3
6,"N=C(N)SCCc1ccc(CCSC(=N)N)cc1 [1,4-PBIT dihydrobromide]",-15.9
7,CC(CCc1ccc(O)cc1)NCCc1ccc(O)c(O)c1 (stereo unspecified) [Dobutamine hydrochloride],-6.8
8,CC[N+](C)(C)Cc1ccccc1Br [Bretylium tosylate],-11.4
9,N#C/C(=C\c1ccc(O)c(O)c1)C(=O)Nc1ccccc1 [Tyrphostin AG 494],-11.7
10,Brc1ccc([C@H]2CN3CCSC3=N2)cc1 [S(-)-p-Bromotetramisole oxalate],-16.2
11,"CN1C2CCC1CC(NC(=O)c1nn(C)c3ccccc13)C2 (stereo unspecified) [LY-278,584 maleate]",-4.1
12,C=C[C@H]1CN2CC[C@H]1C[C@H]2[C@H](O)c1ccnc2ccc(OC)cc12 [Quinine sulfate],-41
13,"NCCCCCCCCCCN [1,10-Diaminodecane]",-11.1
14,Cl.N[C@@H](CCC(=O)O)C(=O)O [L-Glutamic acid hydrochloride],-14.5
15,CCC(=O)c1ccc2c(c1)N(CCCN(C)C)c1ccccc1S2 [Propionylpromazine hydrochloride],-32.6
16,NC(=O)OCC(COC(N)=O)c1ccccc1 [Felbamate],-17.9
17,CNC(=O)c1cc2c(cn1)[nH]c1ccccc12 [N-Methyl-beta-carboline-3-carboxamide],-6.8
18,CCCCCCCCCC(=O)NC(CN1CCOCC1)[C@H](O)c1ccccc1 (mixture of isomers),-11.1
19,COc1cc2c(cc1OC)-c1c/c(=N\c3c(C)cc(C)cc3C)n(C)c(=O)n1CC2 [Trequinsin hydrochloride],-21.9
20,COC1(C2=NCCN2)COc2ccccc2O1 (stereo unspecified),-7.5
